Experimental data: publication PMC5008367

T1: CCP6-mut (cytosolic carboxypeptidase 6, H230S/E233Q, enzymatically inactive), immobilized on Affi-gel10 resin (human) (UniProt Q5VU57)
T1 sequence: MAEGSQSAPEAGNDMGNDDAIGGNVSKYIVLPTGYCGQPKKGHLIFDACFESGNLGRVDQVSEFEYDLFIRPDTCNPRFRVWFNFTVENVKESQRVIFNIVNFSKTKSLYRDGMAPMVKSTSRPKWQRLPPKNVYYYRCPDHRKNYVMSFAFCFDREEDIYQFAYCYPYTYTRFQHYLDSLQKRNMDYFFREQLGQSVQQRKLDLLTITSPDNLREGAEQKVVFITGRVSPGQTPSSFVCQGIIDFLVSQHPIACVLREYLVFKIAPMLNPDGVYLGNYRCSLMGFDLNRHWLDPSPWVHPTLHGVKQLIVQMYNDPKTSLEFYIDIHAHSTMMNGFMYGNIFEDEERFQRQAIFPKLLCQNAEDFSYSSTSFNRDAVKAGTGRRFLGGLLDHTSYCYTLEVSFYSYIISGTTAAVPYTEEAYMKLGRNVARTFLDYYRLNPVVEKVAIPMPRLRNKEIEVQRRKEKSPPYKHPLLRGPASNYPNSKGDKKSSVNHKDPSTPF


Legend:
[1] = target: T1, CCP6-mut (cytosolic carboxypeptidase 6, H230S/E233Q, enzymatically inactive), immobilized on Affi-gel10 resin (human); assay: affinity purification with mass spectrometry; CCP6-wt and CCP6-mut immobilized with Affi-gel10 resin; kidney lysates from CCP6-deficient and control mice passed through; eluted fractions on SDS-PAGE with silver staining; differential bands digested with trypsin, nano LC-ESI-LTQ MS/MS; only the target purified
[2] = target: T1, CCP6-mut (cytosolic carboxypeptidase 6, H230S/E233Q, enzymatically inactive), immobilized on Affi-gel10 resin (human); assay: affinity purification with mass spectrometry; CCP6-mut immobilized to Affi-gel10 resin, mixed with serum samples from three RCC patients, each on its own; mass spectrometry; only the target purified

| binding [1] | binding [2] | Binder |
| --- | --- | --- |
| binds |  | DNAJC7 in mouse kidney lysates (protein, UniProt Q9QYI3 1-494) MAATAECDVVMAATEPELLEDEDAKREAESFKEQGNAYYAKKDYNEAYNYYTKAIDMCPNNASYYGNRAATLMMLGRFREALGDAQQSVRLDDSFVRGHLREGKCHLSLGNAMAACRSFQRALELDHKNAQAQQEFKNANAVMEYEKIAEVDFEKRDFRKVVFCMDRALEFAPACHRFKILKAECLAMLGRYPEAQFVASDILRMDSTNADALYVRGLCLYYEDCIEKAVQFFVQALRMAPDHEKACVACRNAKALKAKKEDGNKAFKEGNYKLAYELYTEALGIDPNNIKTNAKLYCNRGTVNSKLRQLEDAIEDCTNAVKLDDTYIKAYLRRAQCYMDTEQFEEAVRDYEKVYQTEKTKEHKQLLKNAQLELKKSKRKDYYKILGVDKNASEDEIKKAYRKRALMHHPDRHSGASAEVQKEEEKKFKEVGEAFTILSDPKKKTRYDSGQDLDEEGMNMGDFDANNIFKAFFGGPGGFSFEASGPGNFYFQFG |
|  | binds | DNAJC7 in serum of RCC patients (protein, UniProt Q99615 1-494, polyglutamylated in RCC sera (GT335 signal); sites not stated) MAAAAECDVVMAATEPELLDDQEAKREAETFKEQGNAYYAKKDYNEAYNYYTKAIDMCPKNASYYGNRAATLMMLGRFREALGDAQQSVRLDDSFVRGHLREGKCHLSLGNAMAACRSFQRALELDHKNAQAQQEFKNANAVMEYEKIAETDFEKRDFRKVVFCMDRALEFAPACHRFKILKAECLAMLGRYPEAQSVASDILRMDSTNADALYVRGLCLYYEDCIEKAVQFFVQALRMAPDHEKACIACRNAKALKAKKEDGNKAFKEGNYKLAYELYTEALGIDPNNIKTNAKLYCNRGTVNSKLRKLDDAIEDCTNAVKLDDTYIKAYLRRAQCYMDTEQYEEAVRDYEKVYQTEKTKEHKQLLKNAQLELKKSKRKDYYKILGVDKNASEDEIKKAYRKRALMHHPDRHSGASAEVQKEEEKKFKEVGEAFTILSDPKKKTRYDSGQDLDEEGMNMGDFDPNNIFKAFFGGPGGFSFEASGPGNFFFQFG |

These are yes or no findings as the source states them, for the method shown. In cells and extracts the contact can be indirect. These calls come from enrichment with a bait or labelling near it, and not all partners need be listed.
